The text below walks through data of patent US4859765 (dated 1989).

The data set in a line: general procedure: Boc solid-phase peptide synthesis; Boc-Cys(BzlOMe)-O-Resin from chloromethylpolystyrene-1%-divinylbenzene resin (1 mmol Cl/g). The note with it: whole synthesis, scale 1.0 mmol, acetate salt.

For H-YGASDSNVYDLC-OH, the isolated mass came out at 85 mg.
